In PMC9410875:
Where a chain is given by its changes, count along the chain named. Weaker means in comparison with the reference protein, sequence or condition of that experiment. For part of these data: Where a protein sequence is shown, tags need not be part of it. For part of these data: For at least one entry, the source does not settle the construct or the ends of the probe.

The chains behind the UniProt entries cited, without tags or fusion partners. Where a name states a change or a piece, a line headed by the entry shows the natural chain unless it says otherwise.
UniProt P55317: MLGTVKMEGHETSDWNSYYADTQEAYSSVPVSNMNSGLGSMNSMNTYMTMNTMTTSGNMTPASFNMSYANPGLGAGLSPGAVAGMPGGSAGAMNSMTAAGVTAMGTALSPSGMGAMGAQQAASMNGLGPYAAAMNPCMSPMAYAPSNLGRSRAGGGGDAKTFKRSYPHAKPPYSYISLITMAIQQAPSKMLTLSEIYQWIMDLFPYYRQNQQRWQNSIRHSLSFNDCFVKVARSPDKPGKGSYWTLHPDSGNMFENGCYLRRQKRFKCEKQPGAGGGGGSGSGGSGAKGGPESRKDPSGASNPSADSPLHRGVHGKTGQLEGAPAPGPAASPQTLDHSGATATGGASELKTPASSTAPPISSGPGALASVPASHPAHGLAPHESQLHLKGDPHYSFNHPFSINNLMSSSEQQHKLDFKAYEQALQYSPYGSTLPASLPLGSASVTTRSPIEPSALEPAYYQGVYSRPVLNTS

Legend:
FOXL2-DBD (Homo sapiens) [1] = target: T1, FOXL2-DBD (Homo sapiens) (UniProt P58012); test: ITC; settings: binding greatly weakened; ITC: 20 mM HEPES pH 7.5, 150 mM NaCl, 10 mM MgCl2, 298 K; recombinant protein; residues 52-148; protein details: GST tag cleaved by TEV
T1 sequence (looked up): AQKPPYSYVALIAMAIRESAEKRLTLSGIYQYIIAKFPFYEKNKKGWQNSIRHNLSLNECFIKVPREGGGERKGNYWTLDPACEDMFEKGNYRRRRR

FOXL2-DBD (Homo sapiens) [2] = target: T1, FOXL2-DBD (Homo sapiens); test: EMSA; settings: EMSA: 2.5 uM DNA, 20 mM HEPES pH 7.5, 50 mM KCl, 10 mM MgCl2, 1 mM DTT, 10% glycerol, on ice 30 min, FOXA1 EMSA: 20 mM Tris-HCl pH 8.0, 0.1 mg/ml BSA, 50 uM ZnCl2, recombinant protein, residues 52-148, protein details: GST tag cleaved by TEV
FOXA1-DBD Y173A/S177A = target: T2, FOXA1-DBD Y173A/S177A (UniProt P55317); test: EMSA; settings: significantly compromised; EMSA: 2.5 uM DNA, 20 mM HEPES pH 7.5, 50 mM KCl, 10 mM MgCl2, 1 mM DTT, 10% glycerol, on ice 30 min; FOXA1 EMSA: 20 mM Tris-HCl pH 8.0, 0.1 mg/ml BSA, 50 uM ZnCl2; recombinant protein; residues 168-264; label: 5' Cy3 on strand 1 (legends say Cy5)
T2 sequence (looked up): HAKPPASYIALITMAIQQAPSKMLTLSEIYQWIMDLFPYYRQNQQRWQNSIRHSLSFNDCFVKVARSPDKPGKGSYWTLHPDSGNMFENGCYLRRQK

FOXA1-DBD S174A/S177A = target: T3, FOXA1-DBD S174A/S177A (UniProt P55317); test: EMSA; settings: significantly compromised; EMSA: 2.5 uM DNA, 20 mM HEPES pH 7.5, 50 mM KCl, 10 mM MgCl2, 1 mM DTT, 10% glycerol, on ice 30 min; FOXA1 EMSA: 20 mM Tris-HCl pH 8.0, 0.1 mg/ml BSA, 50 uM ZnCl2; recombinant protein; residues 168-264; label: 5' Cy3 on strand 1 (legends say Cy5)
T3 sequence (looked up): T2 sequence (looked up) with A6Y, S7A

FOXA1-DBD = FOXA1-DBD (UniProt P55317); test: EMSA; settings: 50 mM EDTA (Mg2+ depleted), dimer shift significantly reduced; EMSA: 2.5 uM DNA, 20 mM HEPES pH 7.5, 50 mM KCl, 10 mM MgCl2, 1 mM DTT, 10% glycerol, on ice 30 min; FOXA1 EMSA: 20 mM Tris-HCl pH 8.0, 0.1 mg/ml BSA, 50 uM ZnCl2; recombinant protein; residues 168-264; protein details: GST tag cleaved by TEV; label: 5' Cy3 on strand 1 (legends say Cy5)

“AAACCCCCCCTATCGA (double strand) [p53 mut1 16 bp (ITC)]”: binds more weakly (FOXL2-DBD (Homo sapiens) [1]).
“TCAAAAAACCCCCCCTATCGAGCTCT (double strand) [p53 mut1 26 bp]”: binds more weakly (FOXL2-DBD (Homo sapiens) [2]; weak monomer shift only, dimer lost, label: 5' Cy3 on strand 1 (legend says Cy5)).
“TCAAAAAATATTTATCTATCGAGCTCT (double strand) [p53 S1 (1 bp spacer)]”: binds more weakly (FOXL2-DBD (Homo sapiens) [2]; dimer shift significantly reduced, label: 5' Cy3 on strand 1).
“TCAAAAAATATTTATTATCGAGCTCT (double strand) [p53-DNA 26 bp (S0)]”: binds more weakly (FOXA1-DBD Y173A/S177A); binds more weakly (FOXA1-DBD S174A/S177A); binds more weakly (FOXA1-DBD).
